Assay results reported in EP4410284A1, “COMPOUND AND METHOD FOR THE TREATMENT OF ZELLWEGER SPECTRUM DISORDER” (Apteeus, priority 2023, dated 2024).

Legend:
[1] = tested on: GM16513 cells; assay: Catalase import immunofluorescence, high-content screening (% importing cells); type: cell-based, human; conditions: 3 days
[2] = tested on: PEX405 cells; assay: as above; type: cell-based, human; conditions: 3 days

Cc1ccc(C(=O)NCCCCCC(=O)Nc2ccccc2N)cc1 [RG2833]
% Importing cells ([1]; 1.3 µM): 17%
% Importing cells ([1]; 10 µM): 43%
% Importing cells ([2]; 1.3 µM): 5%
% Importing cells ([2]; 10 µM): 9%
